The supplement of paper PMC10849652
The other results are listed elsewhere or left out.

Sequences of proteins named here, by UniProt entry; tags and fusion partners are left off. A change or cut given only in a name is not applied to a line headed by its entry.
UniProt Q12809: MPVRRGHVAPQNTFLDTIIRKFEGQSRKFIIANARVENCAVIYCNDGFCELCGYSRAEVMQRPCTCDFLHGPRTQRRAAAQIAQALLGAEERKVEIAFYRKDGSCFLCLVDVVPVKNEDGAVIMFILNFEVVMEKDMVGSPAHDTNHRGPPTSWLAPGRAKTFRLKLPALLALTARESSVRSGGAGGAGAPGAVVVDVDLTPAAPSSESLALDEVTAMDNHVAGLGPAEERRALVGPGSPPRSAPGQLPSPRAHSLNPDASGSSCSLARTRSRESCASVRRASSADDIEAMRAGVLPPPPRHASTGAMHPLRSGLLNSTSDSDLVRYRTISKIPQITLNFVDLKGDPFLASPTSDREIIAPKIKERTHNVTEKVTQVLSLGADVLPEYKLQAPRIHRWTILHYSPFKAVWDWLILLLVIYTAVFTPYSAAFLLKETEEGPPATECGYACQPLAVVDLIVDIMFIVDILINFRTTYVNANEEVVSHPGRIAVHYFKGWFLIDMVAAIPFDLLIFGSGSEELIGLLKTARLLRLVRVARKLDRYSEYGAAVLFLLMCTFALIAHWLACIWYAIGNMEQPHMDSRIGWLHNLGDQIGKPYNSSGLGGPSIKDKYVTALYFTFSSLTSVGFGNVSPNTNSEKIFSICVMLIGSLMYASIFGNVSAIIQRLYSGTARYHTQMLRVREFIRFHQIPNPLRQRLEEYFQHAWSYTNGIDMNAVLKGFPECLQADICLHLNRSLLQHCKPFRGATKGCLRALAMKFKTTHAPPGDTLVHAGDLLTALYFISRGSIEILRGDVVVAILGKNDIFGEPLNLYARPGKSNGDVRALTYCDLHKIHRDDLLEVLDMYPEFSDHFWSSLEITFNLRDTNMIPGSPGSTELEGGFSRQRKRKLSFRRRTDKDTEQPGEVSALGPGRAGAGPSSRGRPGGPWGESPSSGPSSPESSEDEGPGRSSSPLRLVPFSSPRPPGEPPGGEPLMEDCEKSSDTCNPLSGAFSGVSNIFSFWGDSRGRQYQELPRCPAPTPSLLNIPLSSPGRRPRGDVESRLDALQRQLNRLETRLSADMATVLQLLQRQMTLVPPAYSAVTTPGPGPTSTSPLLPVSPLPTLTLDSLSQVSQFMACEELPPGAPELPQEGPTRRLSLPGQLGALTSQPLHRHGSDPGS
UniProt O75564: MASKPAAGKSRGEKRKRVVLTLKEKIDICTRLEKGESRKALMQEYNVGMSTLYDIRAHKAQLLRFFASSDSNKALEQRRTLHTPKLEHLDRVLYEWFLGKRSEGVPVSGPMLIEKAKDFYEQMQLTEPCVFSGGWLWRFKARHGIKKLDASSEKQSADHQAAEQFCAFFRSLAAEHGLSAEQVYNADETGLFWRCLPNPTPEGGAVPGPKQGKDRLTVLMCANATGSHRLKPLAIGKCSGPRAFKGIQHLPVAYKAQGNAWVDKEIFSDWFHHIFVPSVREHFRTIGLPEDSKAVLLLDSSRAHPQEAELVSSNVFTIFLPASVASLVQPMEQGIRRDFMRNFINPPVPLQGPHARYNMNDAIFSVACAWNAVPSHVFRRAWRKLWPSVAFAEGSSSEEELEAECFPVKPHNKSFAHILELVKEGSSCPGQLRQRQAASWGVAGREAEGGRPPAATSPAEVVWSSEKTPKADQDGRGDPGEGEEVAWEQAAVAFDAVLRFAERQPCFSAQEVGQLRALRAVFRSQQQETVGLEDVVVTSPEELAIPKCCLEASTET
UniProt Q96MP8: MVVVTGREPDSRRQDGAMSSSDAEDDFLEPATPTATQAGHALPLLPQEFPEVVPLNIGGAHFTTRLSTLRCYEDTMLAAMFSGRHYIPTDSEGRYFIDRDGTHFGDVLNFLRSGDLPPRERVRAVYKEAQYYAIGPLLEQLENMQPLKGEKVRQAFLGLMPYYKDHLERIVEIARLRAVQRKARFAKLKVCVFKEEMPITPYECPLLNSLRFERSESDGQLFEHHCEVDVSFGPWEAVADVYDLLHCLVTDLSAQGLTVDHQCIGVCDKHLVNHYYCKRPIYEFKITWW
UniProt P53990, whole entry, looked up: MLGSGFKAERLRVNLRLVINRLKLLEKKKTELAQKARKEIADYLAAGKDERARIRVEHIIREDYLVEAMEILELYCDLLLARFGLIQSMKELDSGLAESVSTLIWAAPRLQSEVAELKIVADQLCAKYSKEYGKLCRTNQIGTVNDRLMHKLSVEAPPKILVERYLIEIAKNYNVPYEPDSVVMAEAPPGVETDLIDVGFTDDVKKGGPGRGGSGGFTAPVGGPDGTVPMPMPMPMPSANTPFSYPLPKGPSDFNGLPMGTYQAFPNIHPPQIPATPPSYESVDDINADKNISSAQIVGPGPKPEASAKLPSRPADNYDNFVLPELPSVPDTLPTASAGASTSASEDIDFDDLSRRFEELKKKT
UniProt Q00978: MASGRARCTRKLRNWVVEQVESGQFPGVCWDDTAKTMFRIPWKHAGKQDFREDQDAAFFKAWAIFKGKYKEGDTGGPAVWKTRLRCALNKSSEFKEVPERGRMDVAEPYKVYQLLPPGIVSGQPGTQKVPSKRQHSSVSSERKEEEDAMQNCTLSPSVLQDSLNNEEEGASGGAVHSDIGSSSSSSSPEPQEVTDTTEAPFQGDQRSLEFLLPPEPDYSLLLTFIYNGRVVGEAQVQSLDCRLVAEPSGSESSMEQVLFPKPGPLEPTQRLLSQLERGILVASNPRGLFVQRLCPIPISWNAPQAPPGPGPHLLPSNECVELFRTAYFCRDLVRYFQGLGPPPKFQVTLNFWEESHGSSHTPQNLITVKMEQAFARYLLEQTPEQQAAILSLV
UniProt Q9ULD6: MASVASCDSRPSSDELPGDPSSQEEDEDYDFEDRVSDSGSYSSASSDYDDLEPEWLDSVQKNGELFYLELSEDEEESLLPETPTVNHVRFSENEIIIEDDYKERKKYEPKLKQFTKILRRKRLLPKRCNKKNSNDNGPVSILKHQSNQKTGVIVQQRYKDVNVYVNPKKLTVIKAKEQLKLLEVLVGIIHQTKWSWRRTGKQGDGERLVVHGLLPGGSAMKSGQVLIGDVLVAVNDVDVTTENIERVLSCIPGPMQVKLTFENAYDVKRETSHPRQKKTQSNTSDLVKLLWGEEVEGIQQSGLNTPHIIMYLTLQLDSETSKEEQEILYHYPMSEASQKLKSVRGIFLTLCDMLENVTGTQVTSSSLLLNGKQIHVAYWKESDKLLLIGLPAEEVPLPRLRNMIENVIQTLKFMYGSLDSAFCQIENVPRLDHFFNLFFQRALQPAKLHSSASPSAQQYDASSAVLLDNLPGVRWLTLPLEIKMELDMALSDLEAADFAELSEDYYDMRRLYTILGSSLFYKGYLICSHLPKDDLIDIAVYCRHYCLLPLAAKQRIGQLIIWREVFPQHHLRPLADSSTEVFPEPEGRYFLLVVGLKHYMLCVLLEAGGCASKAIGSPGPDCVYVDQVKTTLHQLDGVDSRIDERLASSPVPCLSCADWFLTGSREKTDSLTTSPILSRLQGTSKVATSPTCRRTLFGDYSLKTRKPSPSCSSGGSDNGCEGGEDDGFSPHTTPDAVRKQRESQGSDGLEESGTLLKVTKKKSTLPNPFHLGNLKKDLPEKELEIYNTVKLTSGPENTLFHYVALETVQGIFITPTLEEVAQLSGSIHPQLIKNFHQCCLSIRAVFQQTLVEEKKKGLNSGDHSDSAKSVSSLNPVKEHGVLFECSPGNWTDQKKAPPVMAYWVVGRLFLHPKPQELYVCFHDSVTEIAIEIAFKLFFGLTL
UniProt Q9H9L4: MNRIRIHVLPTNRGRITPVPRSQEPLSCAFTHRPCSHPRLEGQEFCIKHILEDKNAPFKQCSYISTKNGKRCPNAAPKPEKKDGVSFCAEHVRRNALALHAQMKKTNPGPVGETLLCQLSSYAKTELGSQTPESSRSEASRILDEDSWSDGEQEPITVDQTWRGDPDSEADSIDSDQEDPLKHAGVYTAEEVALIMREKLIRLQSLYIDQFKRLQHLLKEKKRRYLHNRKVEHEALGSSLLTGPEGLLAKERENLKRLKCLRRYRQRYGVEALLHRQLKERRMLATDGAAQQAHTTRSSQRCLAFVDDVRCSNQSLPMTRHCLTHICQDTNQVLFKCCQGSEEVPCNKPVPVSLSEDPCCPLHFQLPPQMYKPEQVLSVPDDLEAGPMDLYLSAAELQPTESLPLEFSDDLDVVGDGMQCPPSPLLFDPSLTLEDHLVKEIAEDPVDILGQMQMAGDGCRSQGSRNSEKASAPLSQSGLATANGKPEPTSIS
UniProt Q13352: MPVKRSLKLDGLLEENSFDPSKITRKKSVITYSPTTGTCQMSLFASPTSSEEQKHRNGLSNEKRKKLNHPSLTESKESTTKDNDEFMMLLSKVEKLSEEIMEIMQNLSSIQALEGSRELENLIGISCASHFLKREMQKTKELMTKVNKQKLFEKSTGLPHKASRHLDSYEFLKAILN
UniProt Q9H079: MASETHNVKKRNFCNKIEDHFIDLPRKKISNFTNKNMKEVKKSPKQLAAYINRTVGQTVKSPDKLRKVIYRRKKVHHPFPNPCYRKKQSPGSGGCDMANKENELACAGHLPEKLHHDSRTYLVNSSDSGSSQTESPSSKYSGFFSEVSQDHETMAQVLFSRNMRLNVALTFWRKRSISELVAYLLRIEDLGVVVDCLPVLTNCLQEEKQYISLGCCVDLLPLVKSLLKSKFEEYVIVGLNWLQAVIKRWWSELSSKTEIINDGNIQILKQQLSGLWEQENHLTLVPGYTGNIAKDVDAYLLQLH
UniProt Q86V97: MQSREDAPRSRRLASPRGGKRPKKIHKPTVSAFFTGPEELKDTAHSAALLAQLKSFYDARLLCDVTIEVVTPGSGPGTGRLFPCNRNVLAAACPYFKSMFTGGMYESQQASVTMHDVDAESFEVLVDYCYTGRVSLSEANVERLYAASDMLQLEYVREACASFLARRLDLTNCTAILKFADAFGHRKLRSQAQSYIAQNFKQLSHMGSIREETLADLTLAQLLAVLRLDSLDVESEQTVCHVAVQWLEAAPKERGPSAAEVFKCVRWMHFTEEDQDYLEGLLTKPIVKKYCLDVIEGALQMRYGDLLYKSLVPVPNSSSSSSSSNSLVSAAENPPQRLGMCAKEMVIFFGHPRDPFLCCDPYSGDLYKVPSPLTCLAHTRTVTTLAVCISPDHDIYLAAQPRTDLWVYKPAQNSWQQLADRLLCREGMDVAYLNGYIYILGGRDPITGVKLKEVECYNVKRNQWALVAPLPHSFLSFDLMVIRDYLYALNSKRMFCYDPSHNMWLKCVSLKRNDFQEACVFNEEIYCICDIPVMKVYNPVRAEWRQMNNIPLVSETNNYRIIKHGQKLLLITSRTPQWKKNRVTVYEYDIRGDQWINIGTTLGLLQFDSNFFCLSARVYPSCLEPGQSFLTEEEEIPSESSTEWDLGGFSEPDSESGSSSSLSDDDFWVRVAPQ
UniProt P01591, whole entry, looked up: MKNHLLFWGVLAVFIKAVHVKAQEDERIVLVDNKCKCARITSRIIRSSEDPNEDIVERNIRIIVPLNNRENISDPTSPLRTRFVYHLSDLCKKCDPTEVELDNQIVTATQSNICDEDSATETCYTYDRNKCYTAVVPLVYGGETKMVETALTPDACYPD
UniProt Q8IWB1: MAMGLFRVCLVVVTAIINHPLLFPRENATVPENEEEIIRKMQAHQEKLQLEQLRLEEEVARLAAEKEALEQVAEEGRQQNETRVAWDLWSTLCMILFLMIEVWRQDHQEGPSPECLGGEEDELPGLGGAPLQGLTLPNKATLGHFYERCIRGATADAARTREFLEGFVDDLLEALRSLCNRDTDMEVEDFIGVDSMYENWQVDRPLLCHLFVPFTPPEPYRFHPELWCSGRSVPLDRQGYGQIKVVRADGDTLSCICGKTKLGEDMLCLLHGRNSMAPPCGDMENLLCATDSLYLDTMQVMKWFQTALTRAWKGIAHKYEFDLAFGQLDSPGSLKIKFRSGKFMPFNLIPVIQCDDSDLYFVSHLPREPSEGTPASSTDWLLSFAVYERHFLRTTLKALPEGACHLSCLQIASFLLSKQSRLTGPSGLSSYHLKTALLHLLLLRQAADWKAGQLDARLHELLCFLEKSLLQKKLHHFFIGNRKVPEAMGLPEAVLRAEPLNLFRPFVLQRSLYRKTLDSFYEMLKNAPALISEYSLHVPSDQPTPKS
UniProt P05412, whole entry, looked up: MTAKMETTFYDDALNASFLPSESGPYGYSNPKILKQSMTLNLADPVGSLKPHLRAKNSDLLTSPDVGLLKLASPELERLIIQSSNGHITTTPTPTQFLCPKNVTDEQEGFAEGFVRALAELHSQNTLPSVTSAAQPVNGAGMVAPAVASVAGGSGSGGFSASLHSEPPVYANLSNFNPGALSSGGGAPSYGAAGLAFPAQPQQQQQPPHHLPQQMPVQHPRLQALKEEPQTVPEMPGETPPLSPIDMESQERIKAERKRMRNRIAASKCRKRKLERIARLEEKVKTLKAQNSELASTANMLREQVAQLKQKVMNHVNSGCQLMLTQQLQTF
UniProt Q9H910: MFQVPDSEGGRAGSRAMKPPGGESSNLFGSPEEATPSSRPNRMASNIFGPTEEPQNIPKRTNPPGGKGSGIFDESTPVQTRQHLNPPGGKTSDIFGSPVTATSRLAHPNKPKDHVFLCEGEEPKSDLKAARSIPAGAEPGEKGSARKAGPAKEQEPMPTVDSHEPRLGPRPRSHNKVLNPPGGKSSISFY

Key:
Assay in all cases: log2 fold change, soluble protein after heating vs DMSO (PISA); higher = thermal stabilisation; K562 lysate, 10 uM; active = over 0.2 and 3.5 SD of the protein, either way, in both replicates (recomputed)
[1] = compound: CC(C)C1=C2N=C(C=C(N2N=C1)NCC3=CC=CC=C3)NCCCCCCN
In short: (§1)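 Following dounce homogenisation of K562 pellets in PBS pH 7.4 with 1 mM MgCl2, crude extract at 1 mg/mL protein was incubated for 30 min with 10 μM compound. Aliquots were then heated for 3 min over 48°C-58°C and pooled, NP-40 was added to 0.5% at 4°C, and soluble protein was recovered as the supernatant at 21,000xg for 90 min. Channel-sum-equalised TMTpro 16plex LC-MS/MS quantified this protein. Each value, from duplicates, is a log-two fold change in thermal stability relative to solvent controls.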

[2] = compound: CC1=C(C=C(C=C1)NC(=O)C2=CC(=CC=C2)C(C)(C)C#N)NC3=CC4=C(C=C3)N=CN(C4=O)C
In short: as §1

[3] = compound: CC(=O)c1cnc2ccc(-c3cc(Cl)c(O)c(Cl)c3)nc2c1N[C@H]1CC[C@H](CN(C)C)CC1
In short: as §1

[4] = compound: CC1=CC=C(C=C1)SC2=C3C=C(SC3=CN=C2)C(=O)N
In short: as §1

[5] = compound: CC1=C(C(CC(=O)N1)C2=CC=C(C=C2)C(F)(F)F)C(=O)NC3=C(C=C4C(=C3)C=NN4)F
In short: as §1

[6] = compound: CC(C)(C)Cn1c(N)nc2ccc(-c3[nH]c(C(C)(C)C)nc3-c3ccc(F)cc3)nc21 [ralimetinib]
In short: as §1

[7] = compound: CC(C)(O)CC(=O)NCCn1ccc2ncnc(Nc3ccc(Oc4cccc(C(F)(F)F)c4)c(Cl)c3)c21
In short: as §1

[8] = compound: CC1=C(C2=C(C=C1)C(=O)C3=CC=CC=C3N2CCCN)C
In short: as §1

[9] = compound: CC1=C(C=C(C=C1)NC(=O)C2=CC(=CC=C2)N(C)C)NC(=O)C3=CC=C(C=C3)O
In short: as §1

[10] = compound: C=CC(=O)N1CCC[C@@H](n2nc(-c3ccc(Oc4ccccc4)cc3)c3c(N)ncnc32)C1 [ibrutinib]
In short: as §1

Measured: log2 fold change

KCNH2 (UniProt Q12809)
inactive: [1] -0.066 | [2] 0.062

ITPR3 (UniProt Q14573)
inactive: [3] -0.084 | [1] 0.065 | [2] -0.016 | [4] -0.06

JRK isoform 2 (UniProt O75564)
inactive: [5] 0.083

ITFG2 (UniProt H0YGR0)
inactive: [3] 0.016 | [6] -0.043 | [7] -0.04 | [8] -0.065 | [9] 0 | [4] -0.126

IQCB1 (UniProt Q15051)
inactive: [10] 0.11 | [1] 0.027 | [5] 0.033 | [8] -0.197

KCTD16 (UniProt Q68DU8)
inactive: [2] 0.073

KCTD7 (UniProt Q96MP8)
inactive: [3] 0.076 | [6] -0.057 | [7] 0.111 | [1] 0.123 | [8] 0.111 | [2] -0.195 | [9] 0.012 | [4] -0.123

KANK2 isoform 2 (UniProt Q63ZY3)
inactive: [3] -0.054 | [6] 0.202 | [7] -0.183 | [8] -0.042 | [9] -0.053 | [4] -0.079

IST1 isoform 2 (UniProt P53990)
inactive: [3] -0.071 | [6] -0.044 | [7] 0.038 | [1] 0.02 | [5] 0.103 | [8] 0.037 | [2] 0.037 | [9] -0.069 | [4] 0.094

IRF9 (UniProt Q00978)
inactive: [6] 0.103 | [7] -0.066 | [1] 0.132 | [8] -0.099 | [9] 0.04

JADE2 (UniProt Q9NQC1)
inactive: [8] -0.036

ITPR2 (UniProt Q14571)
inactive: [3] -0.04 | [6] 0.069 | [7] -0.233 | [1] 0.063 | [5] -0.137 | [8] -0.072 | [9] -0.031 | [4] -0.322

INTU (UniProt Q9ULD6)
inactive: [6] 0.053 | [7] 0.091 | [9] -0.231

ITGB1BP2 (UniProt Q9UKP3)
inactive: [8] 0.139

KANSL2 (UniProt Q9H9L4)
inactive: [6] -0.111 | [7] 0.183 | [1] -0.089 | [2] 0.097 | [9] 0.111

ITIH3 (UniProt Q06033)
inactive: [10] 0.067 | [6] 0.236 | [7] -0.051 | [1] -0.018 | [9] 0.068

ISG20 (UniProt Q96AZ6)
inactive: [10] 0.031 | [1] -0.025 | [8] -0.049

KAT2A (UniProt Q92830)
inactive: [3] 0.037 | [6] 0.135 | [7] 0.11 | [5] 0 | [8] -0.055 | [2] -0.051 | [9] -0.131 | [4] 0.152

ITGB3BP isoform 5 (UniProt Q13352)
inactive: [6] 0.091 | [7] 0.027 | [2] -0.045 | [9] -0.027

KATNBL1 (UniProt Q9H079)
inactive: [3] -0.002 | [1] 0.156 | [5] -0.029 | [8] -0.002 | [2] 0.082 | [4] -0.025

KBTBD6 (UniProt Q86V97)
inactive: [5] 0.148 | [2] -0.068

IPP (UniProt Q9Y573)
inactive: [3] 0.042 | [6] 0.14 | [7] -0.056 | [1] -0.073 | [8] -0.006 | [9] 0.088 | [4] -0.044

JAK2 (UniProt O60674)
inactive: [6] 0.095 | [7] -0.062 | [1] 0.145 | [5] 0.041 | [8] 0.124 | [9] 0.088

KDELR3 (UniProt O43731)
inactive: [3] 0.125 | [6] -0.196 | [7] 0.089 | [1] -0.206 | [5] 0.048 | [8] 0.046 | [2] -0.019 | [9] -0.008 | [4] 0.201

IPO5 (UniProt H0Y3V4)
inactive: [3] 0.106 | [6] 0.117 | [7] -0.184 | [1] -0.007 | [5] -0.048 | [8] -0.04 | [9] 0.154 | [4] 0.073

JCHAIN (UniProt P01591)
inactive: [1] 1.97 | [2] -0.131

KCNN4 (UniProt O15554)
inactive: [3] -0.256 | [6] 0.154 | [7] 0.031 | [1] -0.036 | [5] -0.107 | [2] -0.193 | [9] -0.076 | [4] -0.064

KALRN (UniProt O60229)
inactive: [2] 0.051

2 consecutive records already listed, for reference:
KANK2 isoform 2 (UniProt Q63ZY3)
inactive: [3] -0.054 | [6] 0.202 | [7] -0.183 | [8] -0.042 | [9] -0.053 | [4] -0.079

IST1 isoform 2 (UniProt P53990)
inactive: [3] -0.071 | [6] -0.044 | [7] 0.038 | [1] 0.02 | [5] 0.103 | [8] 0.037 | [2] 0.037 | [9] -0.069 | [4] 0.094

More records.

ISG20L2 (UniProt Q9H9L3)
inactive: [3] 0.016 | [6] -0.079 | [7] -0.038 | [1] 0.048 | [5] 0.064 | [8] 0.006 | [9] 0.097 | [4] 0.067

JUNB (UniProt P17275)
inactive: [8] -0.241 | [2] 0.178

KDM2B (UniProt Q8NHM5)
inactive: [6] 0.058 | [7] -0.052 | [1] -0.075 | [2] 0.054 | [9] -0.043

ITPRIP (UniProt Q8IWB1)
inactive: [1] 0.023 | [8] 0.041

JUN (UniProt P05412)
inactive: [3] 0.079 | [6] -0.067 | [7] -0.007 | [1] 0.098 | [8] 0.074 | [2] 0.12 | [9] -0.129 | [4] -0.037

JPT2 isoform 2 (UniProt Q9H910)
inactive: [10] -0.022 | [8] -0.187

JAK1 (UniProt P23458)
inactive: [10] 0.004 | [2] -0.003

KANSL1 (UniProt Q7Z3B3)
inactive: [3] -0.024 | [6] -0.031 | [7] 0.096 | [1] -0.033 | [5] 0.074 | [8] -0.027 | [9] 0.019 | [4] 0.038

INTS6L (UniProt Q5JSJ4)
inactive: [3] -0.053 | [6] 0.003 | [7] 0.085 | [1] 0.082 | [8] -0.019 | [9] 0.007 | [4] 0.02

JARID2 (UniProt Q92833)
inactive: [5] -0.011
